The supplement of paper PMC11006884
The entries are a selection whose mix differs from that of the whole data set.

Sequences of proteins named here, by UniProt entry; tags and fusion partners are left off. A change or cut given only in a name is not applied to a line headed by its entry.
UniProt Q7Z6Z7, whole entry, looked up: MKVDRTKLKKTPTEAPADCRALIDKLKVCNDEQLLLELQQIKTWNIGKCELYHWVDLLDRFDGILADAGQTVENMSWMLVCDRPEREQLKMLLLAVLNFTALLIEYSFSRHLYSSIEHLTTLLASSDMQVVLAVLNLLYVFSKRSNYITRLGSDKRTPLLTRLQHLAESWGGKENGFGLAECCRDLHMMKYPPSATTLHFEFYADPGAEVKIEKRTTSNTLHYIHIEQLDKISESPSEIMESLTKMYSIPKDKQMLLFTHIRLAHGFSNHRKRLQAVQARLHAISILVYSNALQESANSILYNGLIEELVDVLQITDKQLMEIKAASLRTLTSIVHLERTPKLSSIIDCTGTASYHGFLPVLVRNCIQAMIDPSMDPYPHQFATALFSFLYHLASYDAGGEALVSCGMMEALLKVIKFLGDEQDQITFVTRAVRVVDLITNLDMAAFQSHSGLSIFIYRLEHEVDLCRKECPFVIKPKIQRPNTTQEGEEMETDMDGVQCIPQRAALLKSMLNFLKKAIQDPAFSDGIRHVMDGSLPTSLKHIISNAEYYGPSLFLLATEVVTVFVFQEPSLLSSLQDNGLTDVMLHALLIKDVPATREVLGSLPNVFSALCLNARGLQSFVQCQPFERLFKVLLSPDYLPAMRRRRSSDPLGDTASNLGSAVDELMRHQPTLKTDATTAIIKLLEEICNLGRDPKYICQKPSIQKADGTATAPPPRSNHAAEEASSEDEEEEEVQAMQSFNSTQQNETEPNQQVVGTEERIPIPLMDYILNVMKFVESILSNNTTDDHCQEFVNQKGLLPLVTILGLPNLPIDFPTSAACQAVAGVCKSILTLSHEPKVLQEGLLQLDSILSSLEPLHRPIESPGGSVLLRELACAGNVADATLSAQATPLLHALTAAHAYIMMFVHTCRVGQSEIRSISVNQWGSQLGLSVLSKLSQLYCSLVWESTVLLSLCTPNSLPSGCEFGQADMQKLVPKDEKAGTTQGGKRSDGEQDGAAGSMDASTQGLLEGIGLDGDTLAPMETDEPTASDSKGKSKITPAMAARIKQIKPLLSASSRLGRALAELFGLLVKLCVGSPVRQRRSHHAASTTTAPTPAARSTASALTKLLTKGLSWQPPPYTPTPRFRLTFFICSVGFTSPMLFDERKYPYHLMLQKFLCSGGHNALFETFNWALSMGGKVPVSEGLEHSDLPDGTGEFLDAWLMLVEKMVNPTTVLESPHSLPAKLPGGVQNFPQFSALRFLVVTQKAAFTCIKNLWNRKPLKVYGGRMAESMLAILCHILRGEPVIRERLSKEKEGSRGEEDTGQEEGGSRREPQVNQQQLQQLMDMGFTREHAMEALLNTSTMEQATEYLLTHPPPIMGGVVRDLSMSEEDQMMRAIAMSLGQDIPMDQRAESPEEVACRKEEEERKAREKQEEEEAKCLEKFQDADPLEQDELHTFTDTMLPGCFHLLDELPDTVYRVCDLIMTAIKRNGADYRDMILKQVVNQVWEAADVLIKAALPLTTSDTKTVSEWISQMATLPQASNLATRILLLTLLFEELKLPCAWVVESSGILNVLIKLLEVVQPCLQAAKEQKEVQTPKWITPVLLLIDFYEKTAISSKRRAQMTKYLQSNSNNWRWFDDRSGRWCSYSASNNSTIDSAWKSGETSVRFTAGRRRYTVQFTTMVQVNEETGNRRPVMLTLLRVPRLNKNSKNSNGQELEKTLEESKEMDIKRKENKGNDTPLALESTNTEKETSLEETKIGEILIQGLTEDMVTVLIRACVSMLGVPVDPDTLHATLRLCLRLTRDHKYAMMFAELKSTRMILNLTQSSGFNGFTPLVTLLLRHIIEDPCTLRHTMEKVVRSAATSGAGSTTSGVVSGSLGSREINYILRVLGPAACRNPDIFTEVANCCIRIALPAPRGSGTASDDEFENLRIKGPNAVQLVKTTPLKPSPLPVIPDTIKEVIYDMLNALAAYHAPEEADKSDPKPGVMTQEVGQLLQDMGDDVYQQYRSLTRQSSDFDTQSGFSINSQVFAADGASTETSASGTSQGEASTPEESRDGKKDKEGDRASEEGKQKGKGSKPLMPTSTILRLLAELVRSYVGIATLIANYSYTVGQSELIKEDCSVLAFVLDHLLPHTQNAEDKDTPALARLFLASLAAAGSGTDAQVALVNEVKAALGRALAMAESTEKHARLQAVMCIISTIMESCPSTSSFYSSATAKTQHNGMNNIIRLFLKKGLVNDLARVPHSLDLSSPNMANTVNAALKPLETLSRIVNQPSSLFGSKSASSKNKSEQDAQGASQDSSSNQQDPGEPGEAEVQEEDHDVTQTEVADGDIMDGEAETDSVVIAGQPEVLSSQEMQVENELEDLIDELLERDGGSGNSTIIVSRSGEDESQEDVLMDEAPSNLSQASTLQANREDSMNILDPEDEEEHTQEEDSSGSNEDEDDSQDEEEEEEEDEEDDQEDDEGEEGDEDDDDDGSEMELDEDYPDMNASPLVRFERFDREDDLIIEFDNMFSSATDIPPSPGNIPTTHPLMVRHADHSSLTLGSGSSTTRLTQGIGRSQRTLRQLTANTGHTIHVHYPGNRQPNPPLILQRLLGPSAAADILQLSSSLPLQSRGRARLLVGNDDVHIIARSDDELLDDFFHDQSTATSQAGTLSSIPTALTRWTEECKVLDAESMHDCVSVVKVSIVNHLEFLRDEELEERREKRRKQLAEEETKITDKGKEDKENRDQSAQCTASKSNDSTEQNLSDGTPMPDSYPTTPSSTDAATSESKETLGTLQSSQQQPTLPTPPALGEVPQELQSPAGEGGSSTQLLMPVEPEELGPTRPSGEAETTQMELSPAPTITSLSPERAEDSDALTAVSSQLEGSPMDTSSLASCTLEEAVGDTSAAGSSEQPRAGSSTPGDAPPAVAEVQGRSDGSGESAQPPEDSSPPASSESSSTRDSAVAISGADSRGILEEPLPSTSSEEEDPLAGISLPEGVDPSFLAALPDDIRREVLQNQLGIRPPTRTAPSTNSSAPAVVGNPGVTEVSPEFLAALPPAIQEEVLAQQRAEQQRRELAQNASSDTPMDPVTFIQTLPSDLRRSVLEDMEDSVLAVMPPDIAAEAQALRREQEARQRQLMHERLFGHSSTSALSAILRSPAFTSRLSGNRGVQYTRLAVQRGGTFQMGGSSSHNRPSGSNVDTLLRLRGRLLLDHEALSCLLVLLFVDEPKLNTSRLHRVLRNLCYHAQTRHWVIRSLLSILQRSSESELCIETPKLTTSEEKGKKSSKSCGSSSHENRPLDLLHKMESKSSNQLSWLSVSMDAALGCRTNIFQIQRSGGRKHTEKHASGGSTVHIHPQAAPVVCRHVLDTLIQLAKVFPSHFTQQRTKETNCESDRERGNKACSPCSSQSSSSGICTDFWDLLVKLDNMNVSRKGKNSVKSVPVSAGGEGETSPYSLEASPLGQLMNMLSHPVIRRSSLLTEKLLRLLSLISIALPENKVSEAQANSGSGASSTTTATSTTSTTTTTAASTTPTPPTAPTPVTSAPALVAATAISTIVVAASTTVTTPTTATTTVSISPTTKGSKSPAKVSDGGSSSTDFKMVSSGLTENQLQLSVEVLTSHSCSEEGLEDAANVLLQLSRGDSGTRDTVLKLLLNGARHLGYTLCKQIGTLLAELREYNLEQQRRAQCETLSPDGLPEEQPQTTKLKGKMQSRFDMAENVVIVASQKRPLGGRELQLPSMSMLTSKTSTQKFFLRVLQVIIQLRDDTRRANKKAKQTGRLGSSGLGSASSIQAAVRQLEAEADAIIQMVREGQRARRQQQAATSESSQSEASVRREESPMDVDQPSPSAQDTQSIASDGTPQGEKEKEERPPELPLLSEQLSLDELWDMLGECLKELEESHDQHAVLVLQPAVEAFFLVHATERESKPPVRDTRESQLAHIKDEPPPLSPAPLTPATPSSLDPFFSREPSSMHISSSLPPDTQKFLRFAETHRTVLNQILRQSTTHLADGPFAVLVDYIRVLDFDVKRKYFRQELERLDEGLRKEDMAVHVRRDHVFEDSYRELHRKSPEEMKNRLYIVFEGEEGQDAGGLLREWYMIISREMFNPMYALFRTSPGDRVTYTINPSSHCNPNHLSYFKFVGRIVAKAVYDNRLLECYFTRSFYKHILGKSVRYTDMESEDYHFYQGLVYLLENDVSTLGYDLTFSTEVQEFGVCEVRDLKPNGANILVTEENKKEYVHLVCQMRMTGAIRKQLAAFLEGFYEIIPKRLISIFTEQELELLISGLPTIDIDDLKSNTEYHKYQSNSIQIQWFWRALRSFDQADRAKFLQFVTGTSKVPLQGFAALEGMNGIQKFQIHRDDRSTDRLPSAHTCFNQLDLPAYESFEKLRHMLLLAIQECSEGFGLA
UniProt Q8IWC1: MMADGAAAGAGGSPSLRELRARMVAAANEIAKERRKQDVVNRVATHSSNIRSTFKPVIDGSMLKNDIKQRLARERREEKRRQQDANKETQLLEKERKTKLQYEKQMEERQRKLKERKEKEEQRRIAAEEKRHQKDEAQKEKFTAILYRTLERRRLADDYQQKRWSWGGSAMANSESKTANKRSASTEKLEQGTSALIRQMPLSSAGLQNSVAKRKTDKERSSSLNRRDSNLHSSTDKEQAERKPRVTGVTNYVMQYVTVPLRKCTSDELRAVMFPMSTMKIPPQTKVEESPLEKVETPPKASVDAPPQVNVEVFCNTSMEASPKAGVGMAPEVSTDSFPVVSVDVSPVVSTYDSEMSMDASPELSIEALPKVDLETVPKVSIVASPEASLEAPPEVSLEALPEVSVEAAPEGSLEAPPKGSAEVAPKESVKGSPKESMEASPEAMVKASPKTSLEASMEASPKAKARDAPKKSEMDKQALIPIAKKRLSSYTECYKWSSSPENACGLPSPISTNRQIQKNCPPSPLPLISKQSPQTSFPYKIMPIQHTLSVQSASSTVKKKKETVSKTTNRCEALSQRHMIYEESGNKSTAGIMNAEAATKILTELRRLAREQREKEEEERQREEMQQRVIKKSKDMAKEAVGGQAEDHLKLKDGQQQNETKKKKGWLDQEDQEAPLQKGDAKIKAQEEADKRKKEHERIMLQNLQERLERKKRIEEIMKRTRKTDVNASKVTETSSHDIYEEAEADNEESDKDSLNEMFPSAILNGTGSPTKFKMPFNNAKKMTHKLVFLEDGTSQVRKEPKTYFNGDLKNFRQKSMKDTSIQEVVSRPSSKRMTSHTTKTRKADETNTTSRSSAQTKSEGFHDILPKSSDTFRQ
UniProt Q8IVM0: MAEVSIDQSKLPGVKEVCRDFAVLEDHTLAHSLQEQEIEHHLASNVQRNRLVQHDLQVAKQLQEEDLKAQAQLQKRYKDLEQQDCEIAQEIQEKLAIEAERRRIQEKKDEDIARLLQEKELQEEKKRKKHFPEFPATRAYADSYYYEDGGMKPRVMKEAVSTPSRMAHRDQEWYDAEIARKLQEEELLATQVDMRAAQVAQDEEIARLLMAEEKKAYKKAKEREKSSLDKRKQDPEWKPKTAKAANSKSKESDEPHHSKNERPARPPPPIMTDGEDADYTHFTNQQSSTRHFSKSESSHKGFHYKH
UniProt Q86Y56: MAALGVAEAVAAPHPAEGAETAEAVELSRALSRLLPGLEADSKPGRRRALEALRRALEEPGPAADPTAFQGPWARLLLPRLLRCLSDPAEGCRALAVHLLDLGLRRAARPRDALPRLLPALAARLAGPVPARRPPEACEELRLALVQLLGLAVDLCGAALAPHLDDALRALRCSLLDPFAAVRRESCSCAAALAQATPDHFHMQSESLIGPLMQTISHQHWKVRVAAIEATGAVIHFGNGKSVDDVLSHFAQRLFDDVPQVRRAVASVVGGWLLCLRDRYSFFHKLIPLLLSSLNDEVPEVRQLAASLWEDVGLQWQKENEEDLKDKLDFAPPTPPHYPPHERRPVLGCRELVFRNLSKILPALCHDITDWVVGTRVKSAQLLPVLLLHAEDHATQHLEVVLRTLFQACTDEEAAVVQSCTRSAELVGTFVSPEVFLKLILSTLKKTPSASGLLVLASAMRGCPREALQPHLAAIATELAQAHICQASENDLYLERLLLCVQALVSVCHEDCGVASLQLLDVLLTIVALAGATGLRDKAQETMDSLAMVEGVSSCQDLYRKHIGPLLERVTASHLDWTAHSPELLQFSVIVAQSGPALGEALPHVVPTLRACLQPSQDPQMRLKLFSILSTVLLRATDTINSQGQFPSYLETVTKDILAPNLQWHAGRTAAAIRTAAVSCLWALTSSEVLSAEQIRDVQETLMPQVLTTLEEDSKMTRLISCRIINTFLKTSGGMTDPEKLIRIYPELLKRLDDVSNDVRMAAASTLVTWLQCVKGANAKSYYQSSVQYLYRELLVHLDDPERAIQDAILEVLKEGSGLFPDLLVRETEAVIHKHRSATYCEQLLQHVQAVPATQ
UniProt Q7RTV0, whole entry, looked up: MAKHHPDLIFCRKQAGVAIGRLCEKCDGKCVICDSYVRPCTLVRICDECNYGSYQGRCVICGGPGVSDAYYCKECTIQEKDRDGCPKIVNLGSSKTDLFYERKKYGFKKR

Compound: COC(=O)C#Cc1ccccc1 [methyl 3-phenylpropiolate]
Assay: log2 ratio of iodoacetamide-alkyne labeling of the cysteine site, DMSO over compound (competition); higher = stronger covalent engagement of the cysteine by the compound, active = 1 or more
Details: 500 µM; treatment time 1 h; system: HEK293T cell lysate
How it was run: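 The log2 competition ratio per cysteine is defined as mean reporter intensity in control channels over mean reporter intensity in compound channels. Lysate from HEK293T cells (2 mg/mL) received electrophile (500 µM) or vehicle for 1 h at ambient temperature, followed by iodoacetamide alkyne for 1 h. Samples were clicked to sCIP-TMT reagents, pooled, trypsin-digested overnight at 37 °C, streptavidin-enriched, acid-eluted and run on Orbitrap Eclipse LC-MS/MS with FAIMS, with quantification in FragPipe. Three replicates with duplicate channels were used, and any cysteine quantified in only one replicate was excluded.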

| Target | log2 ratio of iodoacetamide-alkyne labeling |
| --- | --- |
| SLFN11 C760 (UniProt Q7Z7L1) | inactive: 0.419 |
| MEPCE C324 (UniProt Q7L2J0) | inactive: 0.183 |
| UniProt Q7Z2T5_C730 | inactive: 0.538 |
| UniProt Q86UW7_C639 | inactive: -0.0248 |
| CCAR1 C465 (UniProt Q8IX12) | inactive: 0.502 |
| SCD5 C14 (UniProt Q86SK9) | inactive: 0.36 |
| COMMD6 C60 (UniProt Q7Z4G1) | inactive: 0.41 |
| HUWE1 C689 (UniProt Q7Z6Z7) | inactive: 0.0285 |
| CCDC117 C81 (UniProt Q8IWD4) | active: 1.66 |
| UniProt Q7L8W6_C88 | inactive: 0.839 |
| ELMOD2 C285 (UniProt Q8IZ81) | inactive: -0.137 |
| MAP7D3 C315 (UniProt Q8IWC1) | inactive: -0.125 |
| CCDC50 C18 (UniProt Q8IVM0) | inactive: 0.414 |
| UniProt Q7LBC6_C1451 | inactive: 0.513 |
| UniProt Q86Y56_C773 | inactive: -0.0321 |
| UniProt Q7L0Y3_C78 | inactive: 0.17 |
| HEATR3 C534 (UniProt Q7Z4Q2) | inactive: 0.405 |
| IRF2BP2 C505 (UniProt Q7Z5L9) | inactive: 0.211 |
| NUFIP2 C234 (UniProt Q7Z417) | inactive: 0.151 |

A different layout for some results above.
Target,log2 ratio of iodoacetamide-alkyne labeling
SCD5 C14 (UniProt Q86SK9),inactive: 0.36
UniProt Q86Y56_C773,inactive: -0.0321

The list continues:

| Target | log2 ratio of iodoacetamide-alkyne labeling |
| --- | --- |
| ANKMY2 C277 (UniProt Q8IV38) | inactive: 0.213 |
| UniProt Q86Y56_C841 | inactive: 0.052 |
| UniProt Q7RTV0_C46 | inactive: 0.211 |
| HUWE1 C3239 (UniProt Q7Z6Z7) | inactive: 0.243 |
| SND1 C228 (UniProt Q7KZF4) | inactive: 0.17 |
| LUZP1 C594 (UniProt Q86V48) | active: 1.19 |
| UniProt Q8IX01_C183 | inactive: 0.451 |
| GCC2 C297 (UniProt Q8IWJ2) | inactive: 0.466 |
| SLFN11 C842 (UniProt Q7Z7L1) | inactive: 0.737 |
| ZC3HC1 C500 (UniProt Q86WB0) | inactive: 0.388 |
| SND1 C31 (UniProt Q7KZF4) | inactive: 0.0343 |
| DCXR C150 (UniProt Q7Z4W1) | inactive: -0.1 |
| NT5DC3 C276 (UniProt Q86UY8) | inactive: 0.218 |
| UniProt Q8IVS2_C62 | inactive: 0.4 |
| WDFY1 C287 (UniProt Q8IWB7) | inactive: 0.127 |
| SUPV3L1 C175 (UniProt Q8IYB8) | inactive: 0.138 |
| HUWE1 C790 (UniProt Q7Z6Z7) | inactive: 0.465 |
| UniProt Q86YR5_C515 | active: 1.7 |
